PubChem BioAssay AID1259424 – University of Nebraska Medical Center – 2018

Screen: 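Rank knockdowns across the genome by resemblance to the KSR1 depletion profile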 (primary screen)
Cell system: human HCT116 colon cancer cells
Knock-down reagent: siRNA pool against human genes, 50 nM
Detection: 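Six signature mRNAs by branched-DNA multiplex assay, scaled to two housekeeping genes and non-targeting median, log2; matched to mean KSR1 knockdown profile by Pearson correlation and euclidean distance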
Reading the numbers: mean correlation with KSR1 profile: higher = expression change more like KSR1 knockdown; mean distance from KSR1 profile: higher = expression change less like KSR1 knockdown
In all, the deposit lists about 14,000 reagents; below is an unselected part. 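Higher correlation or smaller distance means closer resemblance to KSR1 loss; control wells, including KSR1 knockdowns, recur on many plates.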 The numbers tell different reagents against one gene apart. Further read-outs or replicates are left out here. Not given: the time to read-out.

For IQSEC3 (GeneID 440073), what does the deposit list?
mean correlation with KSR1 profile: -0.129; mean distance from KSR1 profile: 1.85

For CDC42EP4 (GeneID 23580), what was measured?
mean correlation with KSR1 profile: -0.694; mean distance from KSR1 profile: 2.42

With CACNG1 (GeneID 786), what does the deposit list?
mean correlation with KSR1 profile: -0.166; mean distance from KSR1 profile: 3.65

With BIVM (GeneID 54841), what was measured?
mean correlation with KSR1 profile: -0.78; mean distance from KSR1 profile: 2.95

What is on record for ATP6V0A4 (GeneID 50617)?
mean correlation with KSR1 profile: -0.179; mean distance from KSR1 profile: 1.92

What did the screen give for MRPS31 (GeneID 10240)?
mean correlation with KSR1 profile: -0.388; mean distance from KSR1 profile: 2.24

For MND1 (GeneID 84057), what was measured?
mean correlation with KSR1 profile: 0.872; mean distance from KSR1 profile: 0.683

Which result is listed for HERC2 (GeneID 8924)?
mean correlation with KSR1 profile: 0.58; mean distance from KSR1 profile: 0.989

With ALG13 (GeneID 79868) #1, what was measured?
mean correlation with KSR1 profile: 0.351; mean distance from KSR1 profile: 2.54

Which result is listed for ALG13 (GeneID 79868) #2?
mean correlation with KSR1 profile: 0.649; mean distance from KSR1 profile: 2.08

With CENPE (GeneID 1062), how do the results read?
mean correlation with KSR1 profile: -0.235; mean distance from KSR1 profile: 2.65

How did the screen score P2RY11 (GeneID 5032)?
mean correlation with KSR1 profile: 0.151; mean distance from KSR1 profile: 2.76

For CFHR5 (GeneID 81494), how do the results read?
mean correlation with KSR1 profile: 0.173; mean distance from KSR1 profile: 3.15

For SMAD3 (GeneID 4088) #1, what does the deposit list?
mean correlation with KSR1 profile: 0.216; mean distance from KSR1 profile: 3.05

With SMAD3 (GeneID 4088) #2, what does the deposit list?
mean correlation with KSR1 profile: -0.286; mean distance from KSR1 profile: 2.6

With CYP11B1 (GeneID 1584), what was measured?
mean correlation with KSR1 profile: -0.103; mean distance from KSR1 profile: 3.21

How did the screen score LAMA5 (GeneID 3911)?
mean correlation with KSR1 profile: 0.14; mean distance from KSR1 profile: 1.84

Which result is listed for GPR174 (GeneID 84636)?
mean correlation with KSR1 profile: -0.0013; mean distance from KSR1 profile: 2.58

With SLC10A2 (GeneID 6555), how do the results read?
mean correlation with KSR1 profile: 0.3; mean distance from KSR1 profile: 1.73

With PHC2 (GeneID 1912), what does the deposit list?
mean correlation with KSR1 profile: 0.797; mean distance from KSR1 profile: 4.24

With AGBL5 (GeneID 60509), what was measured?
mean correlation with KSR1 profile: 0.704; mean distance from KSR1 profile: 1.75

How did the screen score FXYD3 (GeneID 5349)?
mean correlation with KSR1 profile: 0.529; mean distance from KSR1 profile: 1.12

How did the screen score SOD2 (GeneID 6648)?
mean correlation with KSR1 profile: 0.811; mean distance from KSR1 profile: 1.3

With DCTN1 (GeneID 1639), how do the results read?
mean correlation with KSR1 profile: 0.369; mean distance from KSR1 profile: 1.84

Which result is listed for NDFIP2 (GeneID 54602)?
mean correlation with KSR1 profile: -0.542; mean distance from KSR1 profile: 6.61

What did the screen give for NMRAL1 (GeneID 57407)?
mean correlation with KSR1 profile: 0.176; mean distance from KSR1 profile: 3.53

For FGF23 (GeneID 8074), how do the results read?
mean correlation with KSR1 profile: 0.603; mean distance from KSR1 profile: 1.93

For SLC67A2 (GeneID 84804), how do the results read?
mean correlation with KSR1 profile: 0.543; mean distance from KSR1 profile: 1.76

Part of the list above, reformatted:
| gene knocked down | reagent | mean correlation with KSR1 profile | mean distance from KSR1 profile |
| --- | --- | --- | --- |
| ALG13 (GeneID 79868) | 1 | 0.351 | 2.54 |
| ALG13 (GeneID 79868) | 2 | 0.649 | 2.08 |
